In paper doi:10.1101/2021.10.14.464392:
No constants are given. Whether binding was seen depends on the method and setting. Binding seen in cells or lysates may run through a third protein. Here binding means that the protein was enriched with, or labelled near, the bait; the list need not be complete. Tags and fused reporters may be left off the sequences shown.

Protein sequences, listed by entry. Tags and fused reporters are not part of them.
UniProt P46939: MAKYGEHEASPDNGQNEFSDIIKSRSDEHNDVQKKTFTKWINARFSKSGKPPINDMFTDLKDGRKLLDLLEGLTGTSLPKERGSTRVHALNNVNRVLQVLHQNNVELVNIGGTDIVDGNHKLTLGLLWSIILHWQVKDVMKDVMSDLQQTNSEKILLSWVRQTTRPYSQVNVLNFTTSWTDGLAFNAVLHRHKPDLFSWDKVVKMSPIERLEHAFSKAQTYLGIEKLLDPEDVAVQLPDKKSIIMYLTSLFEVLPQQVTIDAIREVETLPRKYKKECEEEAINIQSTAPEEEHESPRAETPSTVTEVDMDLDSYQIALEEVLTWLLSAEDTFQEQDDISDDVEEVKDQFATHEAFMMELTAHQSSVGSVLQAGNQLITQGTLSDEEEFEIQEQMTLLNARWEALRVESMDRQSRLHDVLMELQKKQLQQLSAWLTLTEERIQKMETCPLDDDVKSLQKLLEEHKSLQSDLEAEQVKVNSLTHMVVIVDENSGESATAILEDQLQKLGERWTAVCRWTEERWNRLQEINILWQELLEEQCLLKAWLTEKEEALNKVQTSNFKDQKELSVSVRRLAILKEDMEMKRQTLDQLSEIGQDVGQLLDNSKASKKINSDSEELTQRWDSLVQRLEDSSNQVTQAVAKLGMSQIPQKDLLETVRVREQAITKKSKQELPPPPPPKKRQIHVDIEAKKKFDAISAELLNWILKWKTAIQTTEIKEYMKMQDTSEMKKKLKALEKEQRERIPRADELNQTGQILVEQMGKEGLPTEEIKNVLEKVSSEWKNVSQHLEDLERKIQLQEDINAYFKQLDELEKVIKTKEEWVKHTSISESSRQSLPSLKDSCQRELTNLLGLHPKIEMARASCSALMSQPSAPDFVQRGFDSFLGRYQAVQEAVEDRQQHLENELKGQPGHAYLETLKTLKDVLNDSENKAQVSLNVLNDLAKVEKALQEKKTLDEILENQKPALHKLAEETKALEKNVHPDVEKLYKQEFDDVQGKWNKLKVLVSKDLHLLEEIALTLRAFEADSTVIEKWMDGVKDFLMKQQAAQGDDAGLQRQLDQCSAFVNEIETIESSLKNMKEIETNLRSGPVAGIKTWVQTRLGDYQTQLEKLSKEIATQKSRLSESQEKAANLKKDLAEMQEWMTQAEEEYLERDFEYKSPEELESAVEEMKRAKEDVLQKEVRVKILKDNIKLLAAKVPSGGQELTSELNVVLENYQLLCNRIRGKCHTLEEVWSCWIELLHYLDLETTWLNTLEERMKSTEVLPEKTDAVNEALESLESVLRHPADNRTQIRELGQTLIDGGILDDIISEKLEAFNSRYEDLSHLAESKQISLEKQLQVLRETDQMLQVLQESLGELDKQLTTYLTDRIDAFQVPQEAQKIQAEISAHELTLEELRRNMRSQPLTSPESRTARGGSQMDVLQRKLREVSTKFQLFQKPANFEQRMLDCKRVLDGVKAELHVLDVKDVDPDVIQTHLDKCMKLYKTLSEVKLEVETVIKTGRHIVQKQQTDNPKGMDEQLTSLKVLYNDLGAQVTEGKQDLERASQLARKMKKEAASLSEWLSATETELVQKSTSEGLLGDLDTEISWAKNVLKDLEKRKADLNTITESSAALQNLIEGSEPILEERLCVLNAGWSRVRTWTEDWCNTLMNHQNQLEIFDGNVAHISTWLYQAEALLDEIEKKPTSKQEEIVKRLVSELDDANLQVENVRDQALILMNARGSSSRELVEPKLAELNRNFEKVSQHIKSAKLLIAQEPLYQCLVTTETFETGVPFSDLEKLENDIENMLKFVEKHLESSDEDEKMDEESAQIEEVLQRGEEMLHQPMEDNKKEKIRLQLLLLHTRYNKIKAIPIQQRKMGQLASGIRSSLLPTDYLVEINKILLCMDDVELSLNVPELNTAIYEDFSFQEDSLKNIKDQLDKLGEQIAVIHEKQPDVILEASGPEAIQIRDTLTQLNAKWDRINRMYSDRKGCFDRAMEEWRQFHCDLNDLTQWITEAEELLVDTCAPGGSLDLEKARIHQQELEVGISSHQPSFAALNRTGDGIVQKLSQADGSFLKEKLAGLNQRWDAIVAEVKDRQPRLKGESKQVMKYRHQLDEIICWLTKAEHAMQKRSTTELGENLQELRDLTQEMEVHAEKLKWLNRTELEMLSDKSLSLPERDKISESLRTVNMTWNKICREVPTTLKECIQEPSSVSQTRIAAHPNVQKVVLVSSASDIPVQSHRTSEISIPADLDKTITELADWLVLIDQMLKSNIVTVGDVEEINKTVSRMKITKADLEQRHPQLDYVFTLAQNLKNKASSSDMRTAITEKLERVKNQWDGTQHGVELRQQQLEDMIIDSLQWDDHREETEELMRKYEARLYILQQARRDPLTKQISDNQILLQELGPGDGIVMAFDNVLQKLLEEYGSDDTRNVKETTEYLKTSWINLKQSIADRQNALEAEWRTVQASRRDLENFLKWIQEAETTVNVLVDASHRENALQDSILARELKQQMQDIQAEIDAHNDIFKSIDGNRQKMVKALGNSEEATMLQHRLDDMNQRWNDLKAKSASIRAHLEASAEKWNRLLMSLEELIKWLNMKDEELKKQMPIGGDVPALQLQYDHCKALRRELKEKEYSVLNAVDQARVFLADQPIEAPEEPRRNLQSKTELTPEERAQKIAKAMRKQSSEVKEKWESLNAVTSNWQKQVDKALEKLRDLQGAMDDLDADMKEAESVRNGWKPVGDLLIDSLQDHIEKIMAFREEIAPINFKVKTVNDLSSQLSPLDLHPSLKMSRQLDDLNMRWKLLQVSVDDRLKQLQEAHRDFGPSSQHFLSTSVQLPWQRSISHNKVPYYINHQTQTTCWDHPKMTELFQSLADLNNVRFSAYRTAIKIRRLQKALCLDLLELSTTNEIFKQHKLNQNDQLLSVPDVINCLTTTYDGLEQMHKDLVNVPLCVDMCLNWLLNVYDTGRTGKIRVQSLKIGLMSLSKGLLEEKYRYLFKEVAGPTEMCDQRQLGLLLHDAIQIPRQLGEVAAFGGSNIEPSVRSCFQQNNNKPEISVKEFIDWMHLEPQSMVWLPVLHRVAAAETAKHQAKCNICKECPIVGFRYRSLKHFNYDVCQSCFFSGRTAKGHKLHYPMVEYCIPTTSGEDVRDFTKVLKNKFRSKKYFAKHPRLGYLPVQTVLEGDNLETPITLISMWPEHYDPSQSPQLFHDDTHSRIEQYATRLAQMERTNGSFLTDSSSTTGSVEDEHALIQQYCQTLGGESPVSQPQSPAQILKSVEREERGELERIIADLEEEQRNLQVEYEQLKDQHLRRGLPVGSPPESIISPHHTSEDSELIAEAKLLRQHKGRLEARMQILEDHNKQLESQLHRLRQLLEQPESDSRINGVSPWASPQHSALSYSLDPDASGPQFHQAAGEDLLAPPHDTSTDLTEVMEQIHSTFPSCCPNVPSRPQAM
UniProt Q9ULH0: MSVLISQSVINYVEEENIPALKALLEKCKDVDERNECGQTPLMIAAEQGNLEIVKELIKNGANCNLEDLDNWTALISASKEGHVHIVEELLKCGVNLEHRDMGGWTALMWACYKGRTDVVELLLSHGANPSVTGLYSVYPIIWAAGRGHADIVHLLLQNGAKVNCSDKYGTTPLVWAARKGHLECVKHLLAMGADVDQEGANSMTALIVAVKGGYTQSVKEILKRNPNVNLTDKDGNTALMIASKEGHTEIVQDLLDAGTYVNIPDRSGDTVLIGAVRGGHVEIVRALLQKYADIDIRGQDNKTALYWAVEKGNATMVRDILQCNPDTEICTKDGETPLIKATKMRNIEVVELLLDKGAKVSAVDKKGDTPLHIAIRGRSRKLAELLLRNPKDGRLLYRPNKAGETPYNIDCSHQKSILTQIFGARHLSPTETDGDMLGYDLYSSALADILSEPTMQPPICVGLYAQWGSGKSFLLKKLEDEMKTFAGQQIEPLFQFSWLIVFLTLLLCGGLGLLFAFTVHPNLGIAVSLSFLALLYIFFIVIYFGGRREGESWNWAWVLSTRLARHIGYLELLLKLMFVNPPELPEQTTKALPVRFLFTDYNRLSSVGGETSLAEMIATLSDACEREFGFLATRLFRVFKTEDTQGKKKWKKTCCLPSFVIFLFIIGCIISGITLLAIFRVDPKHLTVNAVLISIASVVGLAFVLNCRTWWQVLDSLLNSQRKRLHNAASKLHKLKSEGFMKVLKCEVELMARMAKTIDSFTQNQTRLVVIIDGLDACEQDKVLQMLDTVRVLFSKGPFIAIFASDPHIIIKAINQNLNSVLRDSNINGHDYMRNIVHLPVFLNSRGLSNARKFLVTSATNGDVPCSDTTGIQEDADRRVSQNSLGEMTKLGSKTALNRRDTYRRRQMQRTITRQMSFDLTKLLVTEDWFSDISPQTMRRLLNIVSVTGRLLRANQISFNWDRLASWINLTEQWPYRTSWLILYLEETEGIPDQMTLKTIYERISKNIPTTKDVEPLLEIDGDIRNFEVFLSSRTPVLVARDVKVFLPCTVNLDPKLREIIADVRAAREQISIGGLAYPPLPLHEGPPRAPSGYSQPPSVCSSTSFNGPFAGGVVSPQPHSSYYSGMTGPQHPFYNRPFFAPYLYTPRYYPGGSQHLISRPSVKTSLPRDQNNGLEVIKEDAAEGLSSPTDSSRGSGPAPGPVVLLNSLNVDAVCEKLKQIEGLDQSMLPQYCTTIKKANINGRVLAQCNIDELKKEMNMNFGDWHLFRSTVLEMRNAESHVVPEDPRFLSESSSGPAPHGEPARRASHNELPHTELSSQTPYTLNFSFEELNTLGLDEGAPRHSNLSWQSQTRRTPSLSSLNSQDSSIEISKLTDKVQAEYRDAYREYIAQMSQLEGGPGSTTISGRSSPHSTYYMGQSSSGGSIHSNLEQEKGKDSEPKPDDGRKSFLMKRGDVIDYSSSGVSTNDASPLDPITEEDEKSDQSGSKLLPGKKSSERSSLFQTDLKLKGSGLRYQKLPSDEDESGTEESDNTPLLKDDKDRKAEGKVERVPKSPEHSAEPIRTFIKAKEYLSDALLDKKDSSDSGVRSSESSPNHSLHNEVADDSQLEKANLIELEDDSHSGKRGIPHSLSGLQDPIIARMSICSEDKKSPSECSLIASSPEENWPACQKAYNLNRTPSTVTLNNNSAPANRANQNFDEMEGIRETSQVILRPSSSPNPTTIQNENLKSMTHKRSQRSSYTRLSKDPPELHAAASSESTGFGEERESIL

T1: BirAGFP-KIF13B Tail 2 (UniProt Q9NQT8)
T1 sequence: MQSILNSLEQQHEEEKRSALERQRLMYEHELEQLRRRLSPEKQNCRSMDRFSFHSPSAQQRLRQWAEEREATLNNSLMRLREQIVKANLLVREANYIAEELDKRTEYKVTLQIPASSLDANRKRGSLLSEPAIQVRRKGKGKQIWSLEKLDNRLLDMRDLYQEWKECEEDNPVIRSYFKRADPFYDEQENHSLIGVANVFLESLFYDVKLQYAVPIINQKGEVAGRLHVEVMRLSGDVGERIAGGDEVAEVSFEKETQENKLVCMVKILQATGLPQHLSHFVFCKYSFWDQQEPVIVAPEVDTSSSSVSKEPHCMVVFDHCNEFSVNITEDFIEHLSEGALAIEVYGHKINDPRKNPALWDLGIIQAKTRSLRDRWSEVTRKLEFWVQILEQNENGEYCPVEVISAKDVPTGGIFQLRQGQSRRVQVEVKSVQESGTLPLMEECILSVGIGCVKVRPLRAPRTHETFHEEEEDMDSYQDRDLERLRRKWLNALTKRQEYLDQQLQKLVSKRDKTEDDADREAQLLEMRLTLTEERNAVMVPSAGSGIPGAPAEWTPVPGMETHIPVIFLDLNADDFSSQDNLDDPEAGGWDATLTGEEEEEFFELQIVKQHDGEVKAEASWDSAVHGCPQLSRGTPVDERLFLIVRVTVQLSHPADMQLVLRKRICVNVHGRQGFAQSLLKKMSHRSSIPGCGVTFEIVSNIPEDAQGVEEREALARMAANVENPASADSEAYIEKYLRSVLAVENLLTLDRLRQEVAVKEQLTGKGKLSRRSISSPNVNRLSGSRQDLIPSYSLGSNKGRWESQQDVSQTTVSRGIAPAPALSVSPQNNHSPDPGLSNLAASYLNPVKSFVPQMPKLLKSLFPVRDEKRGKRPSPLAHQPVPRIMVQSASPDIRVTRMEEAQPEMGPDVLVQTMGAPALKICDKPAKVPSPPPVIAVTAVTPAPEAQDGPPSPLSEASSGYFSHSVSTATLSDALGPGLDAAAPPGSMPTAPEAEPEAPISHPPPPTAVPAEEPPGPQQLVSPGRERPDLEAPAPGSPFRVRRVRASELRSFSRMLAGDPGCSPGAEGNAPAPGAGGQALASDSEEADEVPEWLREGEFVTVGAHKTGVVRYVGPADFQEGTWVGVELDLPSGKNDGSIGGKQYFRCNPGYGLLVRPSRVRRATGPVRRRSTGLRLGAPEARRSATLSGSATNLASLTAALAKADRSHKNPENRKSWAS

B1: LIN7C (protein, UniProt Q9NUP9 1-197)
chain: MAALGEPVRLERDICRAIELLEKLQRSGEVPPQKLQALQRVLQSEFCNAVREVYEHVYETVDISSSPEVRANATAKATVAAFAASEGHSHPRVVELPKTEEGLGFNIMGGKEQNSPIYISRIIPGGIADRHGGLKRGDQLLSVNGVSVEGEHHEKAVELLKAAQGKVKLVVRYTPKVLEEMESRFEKMRSAKRRQQT
B2: MPP7 (protein, UniProt Q5T2T1 1-576)
chain: MPALSTGSGSDTGLYELLAALPAQLQPHVDSQEDLTFLWDMFGEKSLHSLVKIHEKLHYYEKQSPVPILHGAAALADDLAEELQNKPLNSEIRELLKLLSKPNVKALLSVHDTVAQKNYDPVLPPMPEDIDDEEDSVKIIRLVKNREPLGATIKKDEQTGAIIVARIMRGGAADRSGLIHVGDELREVNGIPVEDKRPEEIIQILAQSQGAITFKIIPGSKEETPSKEGKMFIKALFDYNPNEDKAIPCKEAGLSFKKGDILQIMSQDDATWWQAKHEADANPRAGLIPSKHFQERRLALRRPEILVQPLKVSNRKSSGFRKSFRLSRKDKKTNKSMYECKKSDQYDTADVPTYEEVTPYRRQTNEKYRLVVLVGPVGVGLNELKRKLLISDTQHYGVTVPHTTRARRSQESDGVEYIFISKHLFETDVQNNKFIEYGEYKNNYYGTSIDSVRSVLAKNKVCLLDVQPHTVKHLRTLEFKPYVIFIKPPSIERLRETRKNAKIISSRDDQGAAKPFTEEDFQEMIKSAQIMESQYGHLFDKIIINDDLTVAFNELKTTFDKLETETHWVPVSWLHS

Target: T1, BirAGFP-KIF13B Tail 2
Experiment: affinity purification with mass spectrometry

binding	Molecule
binds	utrophin (from UniProt P46939 1-3433)
binds	angiomotin (AMOT) (from UniProt Q4VCS5-2)
binds	syntrophin (human (endogenous in HEK293))
binds	kinase D-interacting substrate of 220 kDa (KIDINS220) (from UniProt Q9ULH0 1-1771)
binds	B1
binds	B2
